PubChem BioAssay AID1224830, NIAID | 2016
The deposit covers about 18,000 reagents; below is an unselected part. About 2,900 of all reagents (16%) count as active. 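Calls are made per well; low scores hint the gene aids the LPS response, high scores that it dampens it.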 A number with no mark means an inactive call. Repeated entries: four replicate wells of each siRNA pool.

Screen: 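Host factors that control LPS-induced TNF expression in human macrophages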 (primary screen)
Cells: human THP-1 monocytic leukaemia cells, TNF dual-luciferase reporter clone, PMA-differentiated to macrophage-like cells
Knock-down reagent: siRNA pool against human genes, 50 nM
Time to read-out: LPS for 4 h, given about 3 days after siRNA transfection
Challenge: bacterial LPS (TLR4 ligand), 10 ng/ml
Detection: 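TNF firefly reporter luminescence divided by renilla, normalised to the plate median, then turned into a robust z-score for each replicate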
Direction: TNF reporter robust z-score: higher = stronger TNF reporter response to LPS
Call rule: 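a well is active when its z-score exceeds 2.8 or falls below -1.5; control wells carry no call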

no.	Gene	PubChem SID	TNF reporter robust z-score
1	CNEP1R1	SID315463508	-0.99
2	CNEP1R1	SID315463508	-1.33
3	CNEP1R1	SID315463508	-0.22
4	CNEP1R1	SID315463508	-0.83
5	OLFML2A	SID315462883	-0.39
6	OLFML2A	SID315462883	-0.98
7	OLFML2A	SID315462883	-1.36
8	OLFML2A	SID315462883	-1.08
9	RNF111	SID315457156	0.56
10	RNF111	SID315457156	1.03
11	RNF111	SID315457156	-1.5
12	RNF111	SID315457156	-0.11
13	APCS	SID315447341	1.25
14	APCS	SID315447341	3.4 (active)
15	APCS	SID315447341	1.55
16	APCS	SID315447341	3.18 (active)
17	AKT2	SID315447259	-0.24
18	AKT2	SID315447259	-0.72
19	AKT2	SID315447259	-0.61
20	AKT2	SID315447259	0.35
21	TMEM132E-DT	SID315464747	0.41
22	TMEM132E-DT	SID315464747	-0.23
23	TMEM132E-DT	SID315464747	1.37
24	TMEM132E-DT	SID315464747	0.98
25	CHPF2	SID315457031	0.62
26	CHPF2	SID315457031	0.39
27	CHPF2	SID315457031	1.29
28	CHPF2	SID315457031	0.49
29	TBP	SID315451769	2.44
30	TBP	SID315451769	2.57
31	TBP	SID315451769	1.26
32	VPS16	SID315458946	-1.14
33	VPS16	SID315458946	-0.92
34	VPS16	SID315458946	-1.51 (active)
35	VPS16	SID315458946	-1.08
36	RPS19BP1	SID315460925	-0.57
37	RPS19BP1	SID315460925	-0.38
38	RPS19BP1	SID315460925	-1.17
39	RPS19BP1	SID315460925	1.66
40	GRIK3	SID315449044	-0.25
41	GRIK3	SID315449044	1.48
42	GRIK3	SID315449044	-0.77
43	GRIK3	SID315449044	-0.26
44	CHCHD5	SID315460282	-0.64
45	CHCHD5	SID315460282	0
46	CHCHD5	SID315460282	-0.68
47	CHCHD5	SID315460282	-0.35
